Reference: PubChem BioAssay AID1508600 (Functional Genomics Laboratory (NCATS/FGL), 2020)
Screen size: about 53,000 sequences; about 3,700 (7%) were called active.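 How the source made its calls: active means gene knockdowns whose robust z-score for IL-1 alpha signal is at least 2 or at most -2, so actives lie on both sides; inactive means the rest.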 The list shows a part of the results.

Assay: Components of the Cytosolic LPS Sensing Pathway: Gene Identification via Genome-wide siRNA Screen;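 further: robust z of the log signal after scaling to non-targeting control siRNA wells of the plate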
Conditions: RAW264.7 macrophages, IL-1a HTRF, actives lie on both sides, screened at 100 nM (by protocol), cells primed 5 h with Pam3CSK4 first
Outline: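 Three distinct siRNAs per gene were tested singly at 100 nM in RAW264.7 macrophages. Following Pam3CSK4 priming and 24 hour LipidA transfection, IL-1a secretion was read by HTRF.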
For CAGCAGUGCACAGAAAUGGTT against Olfr12, the z-score was inactive: 1.07. In the case of GGAUUAUGACUCCUAGCGCTT against Drap1, the z-score is reported as inactive: -0.751. With GGAUUCCAUCUUUGUAUGATT against Cbr4 the z-score was inactive: 0.689. In the case of CCAUUGAUAUUAAAUCGCUTT against Pik3cg, the z-score is reported as inactive: -0.244. For GGUUAUGCCUUCAGUGAAGTT against Prep, the z-score was inactive: -0.14. For GGUGCCGACAGUAUUUACATT against Zfyve26, the z-score was inactive: 1.25. For GGCUAUUAACAUGCAUAGATT against Ear6, the z-score was inactive: 1.78. For GCUAUGCUUAUUGUAUUGATT against Fut11, the z-score was inactive: -1.75. In the case of GGAGUUAUUCUAGGAAUAUTT against Slc22a26, the z-score is reported as inactive: -0.249. For GGUUUCAUGAAAGAGGAGCTT against Cbs, the z-score was inactive: -0.926. For GCUCGAACAUCUCUUGGUCTT against Capn9, the z-score was inactive: 0.186. For CCACACAUUUAAAAUGGCGTT against Ctsh, the z-score was inactive: -1.37. For GGCAAACUUUAACUCCACATT against Fastk, the z-score was inactive: -0.976. In the case of GCUGGACCCACACAAAAAGTT against Rhbdl3, the z-score is reported as inactive: -0.0513. In the case of CCAACAGGAGAUACAAUUATT against Pclo, the z-score is reported as inactive: 0.677. With GGAUAAUGAAGAAUGCCAATT against Abca4 the z-score was inactive: -0.533. With GCCUUAUGGUUUUGUAUUUTT against Nap1l1 the z-score was active: -2.38. With CCAGUAUCACUAAAGCACATT against Stx19 the z-score was inactive: -0.949. With “GGUCUCAUUGUUGGAAGAGTT against 4930433N12Rik” the z-score was inactive: 0.58. In the case of GGAAAUCCGACCCUACAAATT against Taf12, the z-score is reported as inactive: 1.09. In the case of GACCACUUUAUGGAUGAGUTT against Stx1b, the z-score is reported as inactive: 0.152. With GCUAUGAAGCCAUUAAGAATT against Zfp292 the z-score was inactive: -0.529. With CGCAAUACCAGCAAAAGACTT against Rtp3 the z-score was inactive: -0.927. With “GGUAGAAACAAAGAAAUAGTT against 9130023H24Rik” the z-score was inactive: -0.183. In the case of GGGACAGAAUGUAAUUAAUTT against Olfr702, the z-score is reported as inactive: -1.49. For GGAACCUUGAAGCUUCUCUTT against Hrh3, the z-score was inactive: -0.545. For GGCAGAAACAGUCCUUGUUTT against Gfra4, the z-score was inactive: -1.54. In the case of GCGUACCUGGACAAUGUGUTT against Fmnl3, the z-score is reported as inactive: -1.33. For GGAGACCUCCUCCAUGUUATT against Ptk6, the z-score was inactive: -0.82. In the case of GCGUGAGUCCCUAUAUGAATT against Tmem177, the z-score is reported as active: 2.98. With GCUUGUUAAAAUUGGAAAGTT against Kif11 the z-score was inactive: -1.47. For GGCUGAAGACUUGAAAACGTT against Tipin, the z-score was inactive: -0.291. In the case of GGUAACAACUUUUAAGCCUTT against Prps2, the z-score is reported as inactive: -0.318. In the case of UGUAGAGAGAUAAUUGCUATT against Gm11545, the z-score is reported as inactive: 0.668. For GGCGAUGAGAAGUUUGAAUTT against Sbds, the z-score was inactive: 0.654. For GGAGGACUUUCAGUUAUAUTT against Ogfod3, the z-score was inactive: 1.32. For CCAGCGGGAGACUUACGAATT against Nckap5l, the z-score was inactive: 0.521. With GGCCUUUAACAGUGUUGAGTT against Plag1 the z-score was inactive: -0.778. With CCGACCUGAAACAGAUUAATT against Slc3a2 the z-score was inactive: -0.239. In the case of “GGGAUUUCUGCACACCCUATT against A530053G22Rik”, the z-score is reported as inactive: 0.788. For CCCUUUCACAAAUAGCACATT against Crb3, the z-score was inactive: -0.0393. For CGGCAACAACAUCACUCGGTT against Slit1, the z-score was inactive: -0.817. For CGUAGCAAUCAACAAUAUCTT against Pcdhb17, the z-score was inactive: 0.762. In the case of GCUAUUCACUUGAUUCAUGTT against Sdad1, the z-score is reported as inactive: 0.318. In the case of GCAAUGUGGAAAGUGUAAATT against Washc1, the z-score is reported as inactive: -1.38. For GGCAAAUGUGUUAUGUUUUTT against Rnf11, the z-score was inactive: -0.269. In the case of GCACUGACAUCAAAAAUACTT against Ddx31, the z-score is reported as inactive: -0.131. For GGCUUGACUUCUCCAAACATT against Ep300, the z-score was inactive: -1.68. For GGCACAUCACUGCUUACCUTT against Rce1, the z-score was inactive: -1.73. In the case of GGACUUGCUUUCUGAGAACTT against Zfp319, the z-score is reported as inactive: 0.16. With GGAACAUGACUUUCUCUGUTT against Tmem161a the z-score was inactive: 0.0961. In the case of GCCUUCCAUACAUUUAACATT against Olfr311, the z-score is reported as inactive: -1.01. With GGCGAAUGCGCUUCUGAUATT against BC053393 the z-score was active: 2.29. With GGCCAUGUUGAGUAAGAAATT against Mmrn2 the z-score was inactive: 0.617. In the case of GGAUUUAUUUCCGAUUCGATT against Nalcn, the z-score is reported as inactive: -0.0152. With GGUCUUAUCUUGAUUGAGGTT against Gpr180 the z-score was inactive: -0.563. With GCUAGGAGACCUCUUCAUGTT against Mkrn2 the z-score was inactive: 0.969. With CGCUUAAAACAUUUGGUUATT against Rnf170 the z-score was inactive: 0.489. In the case of GGGAUCAAAGCUUUUUUAGTT against Mad2l1, the z-score is reported as inactive: 0.28. In the case of GCGAGAAUUGGACAAAUUATT against Acot12, the z-score is reported as inactive: 0.784. With GCAUCGUGCAGAAUUUUGCTT against Ephb1 the z-score was inactive: -1.04. With GGGAUUUUGAGUUUGAUGCTT against Zc3h10 the z-score was inactive: -1.03. In the case of GGAUGCAAGCAAAAUGCAGTT against Gpm6b, the z-score is reported as inactive: 0.839. In the case of GGAACAAUUGGUUUGUUAATT against Ms4a6b, the z-score is reported as inactive: 0.212. For GGAGAGUGUCCUUUCAAAUTT against Zfp944, the z-score was inactive: 0.819. For GGAGAAAAAUGAAAGAUCUTT against Grb14, the z-score was inactive: 0.548. With CGAAGGGAUUGAUUUGACUTT against Kars the z-score was inactive: -0.324. With GGUGAUAAGAUACAUAUCATT against Usp9x the z-score was inactive: -1.61. With GGUCCUCAAGAUCUUUGUGTT against Extl1 the z-score was inactive: 0.0445. For GGAGACUGUGAUUGAGAUGTT against Rnf181, the z-score was inactive: -0.401. With CCUGUGCCUCGUUUUAUUUTT against Fam161a the z-score was inactive: 0.807. For GGAGUAGAAUGUAUUCAGATT against Ccng1, the z-score was inactive: -0.948. With GCAUCUAUACACCGUCAGCTT against Zfp341 the z-score was inactive: 0.0353. In the case of GGCCUCGUCAUUUUACAGGTT against Mcee, the z-score is reported as inactive: 0.098. For CCUUAGGUCUAAGUAAUCUTT against Dnase1l1, the z-score was active: 2.3. For CGCAAUAGUCUUAAACCCUTT against Lpxn, the z-score was inactive: 0.532. In the case of GCUCUUCCGCACUUUCAUUTT against H2al1m, the z-score is reported as inactive: 1.37. For GCAACUGAGUCGUAAGUUCTT against Tbc1d12, the z-score was inactive: 0.597. With CCUUCCUGUCCAUGUACCUTT against Olfr412 the z-score was inactive: 0.879. In the case of GGCAUUCCCAUCAAGAGCATT against Dynlrb1, the z-score is reported as inactive: 0.387. With GGGAUACUUGCUCAAUGAGTT against Irf1 the z-score was inactive: -1.3. In the case of GGAGUUUUAACAACAGUAGTT against Clca2, the z-score is reported as inactive: -0.228. For GCUAUGGGUAAACUUUUUGTT against Olfr354, the z-score was inactive: 0.905. With GGAACACAAGCAACAACCATT against Nutm1 the z-score was inactive: -1.21. With GGAACUCUCAAGAGAGAAUTT against Dnajc14 the z-score was inactive: 0.233. With CCUUGGUUUGCACACUCAGTT against Batf3 the z-score was inactive: -0.155. For GGAUGCUUUACCAAAUGAATT against Slc44a3, the z-score was inactive: 0.147. In the case of GGCGGUUUAUGGUAUAAACTT against Fam72a, the z-score is reported as inactive: 0.723. In the case of GGGAAAGGACAUUACCCAGTT against Stox2, the z-score is reported as inactive: -0.22. In the case of GAGCUUGUUCACAUGUUUCTT against Tnfsf12, the z-score is reported as inactive: 0.15. In the case of GCCUCUUGAUGUUAAAGUATT against Krt2, the z-score is reported as inactive: 0.732. With GGAAGUCAUUGCUGUCGUCTT against Mov10l1 the z-score was inactive: -1.12. For GGAAGUUGACACCAAAACCTT against Magel2, the z-score was inactive: -0.295. In the case of GGAUUCCCUGUAUGCCCAATT against Rpl36al, the z-score is reported as inactive: -0.23. With CCAUUUGACAAGACUGCCATT against Ppp6r1 the z-score was inactive: 0.921. With GCACCAAUUCCCUAACUGGTT against Fam102a the z-score was inactive: 0.244. With CCCAGCUUAUACUCUUAAGTT against Fez1 the z-score was inactive: 0.344. In the case of GGCUCAGCACAAUGACUCUTT against Grem1, the z-score is reported as inactive: 1.49. For GGGUGUAUUCUGCUUUGUATT against Otud6b, the z-score was inactive: 0.845. With GCUCUUGGUGGAUCAUCAATT against Foxo3 the z-score was inactive: -1.35. In the case of GGCUAUUUGUUACACCGUCTT against Sharpin, the z-score is reported as inactive: -0.391. With CCGUAUAAACAUUUAUGAGTT against Bmp4 the z-score was inactive: -0.295. For GGUGGAAGUUUGAUUGGUGTT against Ap3s2, the z-score was inactive: -0.992. In the case of GGGCAUUGGGAUCCUCAAUTT against Olfr139, the z-score is reported as inactive: -0.734. With UUGUAGAAGCAUUCUUAUCTT against Olfr668 the z-score was inactive: -1.56. In the case of GCGCGCACGAUGCUUCAUUTT against Dcstamp, the z-score is reported as inactive: 0.00291.
